# ± gives the standard deviation. This is a selection; strong and weak results do not stand in their true shares. Many of these values have a large error. The list shows a part of the results.
# What was measured:
# [1] = tested on: MILI (PIWIL2) piRISC loaded with L1MC piRNA (26 nt); test: pre-steady-state target cleavage rate (min^-1); higher = faster piRNA-guided slicing of the target; details: guide: L1MC piRNA 5'p-UAACUAAAUACUAUGCAAGCUGUAGG
# Summary of the method: (§1)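 The pre-steady-state cleavage rate was calculated from a burst-and-steady-state fit. Data came from Cleave-'n-Seq, in which […] transcribed, DNA-blocked target RNA library was mixed with 1 nM active affinity-purified piRISC carrying one synthetic guide, with or without 500 nM GTSF1 partner protein, in HEPES–potassium acetate buffer at 33 °C for 0–8 or 0–960 min. Uncleaved targets were sequenced and normalised to depth and to weakly complementary targets, three trials were pooled, and k3 was capped at 0.0001 min^-1.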
# [2] = tested on: MIWI (PIWIL1) piRISC loaded with L1MC piRNA (30 nt); test: as above; details: guide: L1MC piRNA 5'p-UAACUAAAUACUAUGCAAGCUGUAGGUCCU
# Summary of the method: as §1
# [3] = tested on: EfPiwi piRISC loaded with L1MC piRNA (26 nt); test: pre-steady-state target cleavage rate (min^-1); guide: L1MC piRNA 5'p-UAACUAAAUACUAUGCAAGCUGUAGG; MIWI and MILI are mouse PIWI proteins and EfPiwi is from a freshwater sponge; tags in brackets are library labels; higher = faster piRNA-guided slicing of the target
# Summary of the method: as §1
# [4] = auxiliary factor: 500 nM mouse GTSF1
# [5] = auxiliary factor: none (no Gtsf1)
# [6] = auxiliary factor: none (no GTSF1)
# [7] = auxiliary factor: 500 nM Ephydatia muelleri Gtsf1
sequence,measurement,setting,value
UCCUGGAUGUCGUUGCAUAGUUUAUAGUUA,pre-steady-state target cleavage rate,[1]; [4],0.0029 ± 0.0043
UCCUGGAUCAGCUUCGAUAGUAUUUAGAAA,pre-steady-state target cleavage rate,[1]; [4],0.0608 ± 0.017
UCCUGGAUGUCGAACGUAUGUAUUUUAGUUA,pre-steady-state target cleavage rate,[2]; [4],< 0.0001
UCCUGCUACAGCUUGCAUAGUAUUUUCUAA,pre-steady-state target cleavage rate,[3]; [5],0.000107 ± 0.048
UCCUGGAUGUGCUUGUCAUAGUAUUUAGUUA,pre-steady-state target cleavage rate,[1]; [6],0.00255 ± 0.0039
same,pre-steady-state target cleavage rate,[2]; [6],0.00143 ± 0.006
same,pre-steady-state target cleavage rate,[3]; [7],0.00492 ± 0.0031
UCCUGGAACAGCUUCCAUAGUUUUUAGUUA,pre-steady-state target cleavage rate,[1]; [6],0.00086 ± 0.0068
same,pre-steady-state target cleavage rate,[2]; [6],0.00111 ± 0.0066
same,pre-steady-state target cleavage rate,[3]; [7],0.000902 ± 0.0059
UCCUGGAUCAGCUUGCAUUCAAUUUAGUAA,pre-steady-state target cleavage rate,[1]; [6],0.000664 ± 0.0073
same,pre-steady-state target cleavage rate,[2]; [6],0.000873 ± 0.0055
same,pre-steady-state target cleavage rate,[3]; [7],0.000363 ± 0.0083
UCCUGGUACAGCUUGCAAUCUAUUUAGUAA,pre-steady-state target cleavage rate,[1]; [6],0.00179 ± 0.0055
same,pre-steady-state target cleavage rate,[2]; [6],0.00184 ± 0.0043
same,pre-steady-state target cleavage rate,[3]; [5],0.000705 ± 0.013
UCCUGCUACAGCUUGCAAUCUAUUUAGAAA,pre-steady-state target cleavage rate,[1]; [6],0.000253 ± 0.012
same,pre-steady-state target cleavage rate,[2]; [6],0.000781 ± 0.012
same,pre-steady-state target cleavage rate,[3]; [7],0.00024 ± 0.014
UCCUGGAUGUCGAACCAUUGUAUUUAGUAA,pre-steady-state target cleavage rate,[1]; [6],0.000432 ± 0.0081
same,pre-steady-state target cleavage rate,[2]; [6],0.000431 ± 0.012
same,pre-steady-state target cleavage rate,[3]; [7],< 0.0001
UCCUGGUACAGCUUCCAUAGUAUUAAGUUA,pre-steady-state target cleavage rate,[1]; [6],0.00141 ± 0.0062
same,pre-steady-state target cleavage rate,[2]; [6],0.00132 ± 0.005
same,pre-steady-state target cleavage rate,[3]; [7],0.00133 ± 0.0029
UCCUGGAACAGCUUGCAUAGAUAUUAGUAA,pre-steady-state target cleavage rate,[1]; [6],0.000548 ± 0.013
same,pre-steady-state target cleavage rate,[2]; [6],0.000769 ± 0.0088
same,pre-steady-state target cleavage rate,[3]; [7],0.000281 ± 0.015
UCCUGCUACAGCUUGCAAAGUAUUUACAAA,pre-steady-state target cleavage rate,[1]; [6],0.00107 ± 0.0053
same,pre-steady-state target cleavage rate,[2]; [6],0.00276 ± 0.0033
same,pre-steady-state target cleavage rate,[3]; [5],0.000291 ± 0.024
UCCUGGAUGUCGAACCAUAGUAUUUAUGUUA,pre-steady-state target cleavage rate,[1]; [6],0.000145 ± 0.037
same,pre-steady-state target cleavage rate,[2]; [6],0.000163 ± 0.036
same,pre-steady-state target cleavage rate,[3]; [7],0.000204 ± 0.029
UCCUGGAUCACCUUCCAUAGUAUUUAGUUA,pre-steady-state target cleavage rate,[1]; [6],0.00116 ± 0.0067
same,pre-steady-state target cleavage rate,[2]; [6],0.000261 ± 0.011
same,pre-steady-state target cleavage rate,[3]; [7],0.00139 ± 0.0045
UCCUGGAUCAGCUUGCAUAGUUAUUUCAAA,pre-steady-state target cleavage rate,[1]; [6],0.000578 ± 0.0079
same,pre-steady-state target cleavage rate,[2]; [6],0.00026 ± 0.0088
same,pre-steady-state target cleavage rate,[3]; [7],0.0005 ± 0.0078
UCCUGGAUGUCCUUGCAUAGUAUUUUCAAA,pre-steady-state target cleavage rate,[1]; [6],0.00132 ± 0.0042
same,pre-steady-state target cleavage rate,[2]; [6],0.00102 ± 0.0064
same,pre-steady-state target cleavage rate,[3]; [7],0.00201 ± 0.0042
UCCUGGAUGUCGAAGCAUAGUAUUUAAUUA,pre-steady-state target cleavage rate,[1]; [6],0.000865 ± 0.0069
same,pre-steady-state target cleavage rate,[2]; [6],0.000656 ± 0.012
same,pre-steady-state target cleavage rate,[3]; [7],0.00111 ± 0.0066
UCCUGCUACAGCUUGCAUUCAAUUUAGAAA,pre-steady-state target cleavage rate,[1]; [6],0.000168 ± 0.021
same,pre-steady-state target cleavage rate,[2]; [6],0.000212 ± 0.02
same,pre-steady-state target cleavage rate,[3]; [7],0.000422 ± 0.0067
UCCUGGAUGUCCUUGCAAAGUAUUUACUUA,pre-steady-state target cleavage rate,[1]; [6],0.00195 ± 0.0031
same,pre-steady-state target cleavage rate,[2]; [6],0.00204 ± 0.0026
same,pre-steady-state target cleavage rate,[3]; [5],0.000277 ± 0.023
UCCUGGAUCAGCUUGCAUAGUAAUUACAAA,pre-steady-state target cleavage rate,[1]; [6],0.0015 ± 0.0043
same,pre-steady-state target cleavage rate,[2]; [6],0.00148 ± 0.0049
same,pre-steady-state target cleavage rate,[3]; [7],0.00172 ± 0.0032
UCCUGCUACAGCUUGCUUAGUAUUUAGAAA,pre-steady-state target cleavage rate,[1]; [6],0.0011 ± 0.0047
same,pre-steady-state target cleavage rate,[2]; [6],0.00148 ± 0.0035
same,pre-steady-state target cleavage rate,[3]; [5],0.000355 ± 0.011
UCCUGGAUGUCCUUGCAUAGUAAAAAGUAA,pre-steady-state target cleavage rate,[1]; [6],0.00142 ± 0.0043
same,pre-steady-state target cleavage rate,[2]; [6],0.000938 ± 0.007
same,pre-steady-state target cleavage rate,[3]; [7],0.00114 ± 0.0071
UCCUGGAUGAGCUACGAUAGUAUUUACAAA,pre-steady-state target cleavage rate,[1]; [6],0.000214 ± 0.027
same,pre-steady-state target cleavage rate,[2]; [6],0.000341 ± 0.024
same,pre-steady-state target cleavage rate,[3]; [7],0.000277 ± 0.015
UCCUGGAUGAGCUUGCAAAGUAUUUACAAA,pre-steady-state target cleavage rate,[1]; [6],0.000856 ± 0.0078
same,pre-steady-state target cleavage rate,[2]; [6],0.00209 ± 0.005
same,pre-steady-state target cleavage rate,[3]; [7],0.00291 ± 0.0039
UCCUGGAUGUCGAACCAGAGUAUUUAGUUA,pre-steady-state target cleavage rate,[1]; [6],0.000314 ± 0.011
same,pre-steady-state target cleavage rate,[2]; [6],0.000307 ± 0.014
same,pre-steady-state target cleavage rate,[3]; [7],< 0.0001
UCCUGGAUGUCCUUGCAUUCAAUUUAGUUA,pre-steady-state target cleavage rate,[1]; [6],0.00142 ± 0.0049
same,pre-steady-state target cleavage rate,[2]; [6],0.000603 ± 0.0092
same,pre-steady-state target cleavage rate,[3]; [7],0.000526 ± 0.0074

# Some of the entries so far, with bars between the fields.
sequence | measurement | setting | value
UCCUGGAUGUCGAACCAUUGUAUUUAGUAA | pre-steady-state target cleavage rate | [1]; [6] | 0.000432 ± 0.0081
same | pre-steady-state target cleavage rate | [2]; [6] | 0.000431 ± 0.012

# 3 entries from above, reformatted.
sequence | measurement | setting | value
UCCUGGAUGUCCUUGCAUAGUAAAAAGUAA | pre-steady-state target cleavage rate | [2]; [6] | 0.000938 ± 0.007
same | pre-steady-state target cleavage rate | [3]; [7] | 0.00114 ± 0.0071
UCCUGGAUGAGCUACGAUAGUAUUUACAAA | pre-steady-state target cleavage rate | [1]; [6] | 0.000214 ± 0.027
